Data as given in PubChem BioAssay AID1224830 (NIAID, 2016)
Assay: 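Host factors that control LPS-induced TNF expression in human macrophages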 (primary screen). Cell system: human THP-1 monocytic leukaemia cells, TNF dual-luciferase reporter clone, PMA-differentiated to macrophage-like cells. Reagents: siRNA pool against human genes, 50 nM. Time to read-out: LPS for 4 h, given about 3 days after siRNA transfection. Challenge: bacterial LPS (TLR4 ligand), 10 ng/ml. Measurement: 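TNF firefly reporter luminescence divided by renilla, normalised to the plate median, then turned into a robust z-score for each replicate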. Reading the numbers: TNF reporter robust z-score: higher = stronger TNF reporter response to LPS. Active means: 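a well is active when its z-score exceeds 2.8 or falls below -1.5; control wells carry no call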.
Shown is an unselected part of about 18,000 deposited reagents. In the full data, about 2,900 (16%) were called active. 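Calls are made per well; low scores hint the gene aids the LPS response, high scores that it dampens it.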 Entries without a mark were called inactive. Repeated entries: four replicate wells of each siRNA pool.

no.	gene	TNF reporter robust z-score
1	ZNF711 (ZFX family zinc finger ZNF711)	-1.35
2	ZNF711 (ZFX family zinc finger ZNF711)	-1.43
3	ZNF711 (ZFX family zinc finger ZNF711)	-1.16
4	ZNF711 (ZFX family zinc finger ZNF711)	-1.23
5	TLX1 (T cell leukemia homeobox 1)	-0.36
6	TLX1 (T cell leukemia homeobox 1)	1.24
7	TLX1 (T cell leukemia homeobox 1)	0.8
8	TLX1 (T cell leukemia homeobox 1)	0.71
9	ZNF197 (zinc finger protein 197)	-0.94
10	ZNF197 (zinc finger protein 197)	-0.68
11	ZNF197 (zinc finger protein 197)	0.22
12	ZNF197 (zinc finger protein 197)	1.14
13	GKAP1 (G kinase anchoring protein 1)	1.9
14	GKAP1 (G kinase anchoring protein 1)	2.73
15	GKAP1 (G kinase anchoring protein 1)	0.1
16	GKAP1 (G kinase anchoring protein 1)	2.62
17	MAP7D1 (MAP7 domain containing 1)	0.72
18	MAP7D1 (MAP7 domain containing 1)	-0.56
19	MAP7D1 (MAP7 domain containing 1)	0.03
20	MAP7D1 (MAP7 domain containing 1)	0.5
21	ARF3 (ARF GTPase 3)	2.89 (active)
22	ARF3 (ARF GTPase 3)	2.68
23	ARF3 (ARF GTPase 3)	1.88
24	ARF3 (ARF GTPase 3)	2.36
25	ZIC5 (Zic family zinc finger 5)	0.47
26	ZIC5 (Zic family zinc finger 5)	-0.94
27	ZIC5 (Zic family zinc finger 5)	-1.38
28	ZIC5 (Zic family zinc finger 5)	-0.38
29	OR9Q2 (olfactory receptor family 9 subfamily Q member 2)	0.12
30	OR9Q2 (olfactory receptor family 9 subfamily Q member 2)	0.06
31	OR9Q2 (olfactory receptor family 9 subfamily Q member 2)	-0.73
32	OR9Q2 (olfactory receptor family 9 subfamily Q member 2)	0.26
33	RNF145 (ring finger protein 145)	1.59
34	RNF145 (ring finger protein 145)	1.1
35	RNF145 (ring finger protein 145)	-0.3
36	RNF145 (ring finger protein 145)	1.35
37	OR5A2 (olfactory receptor family 5 subfamily A member 2)	-0.05
38	OR5A2 (olfactory receptor family 5 subfamily A member 2)	-0.56
39	OR5A2 (olfactory receptor family 5 subfamily A member 2)	-0.64
40	OR5A2 (olfactory receptor family 5 subfamily A member 2)	-1.39
41	GTF3C6 (general transcription factor IIIC subunit 6)	-0.9
42	GTF3C6 (general transcription factor IIIC subunit 6)	-0.44
43	GTF3C6 (general transcription factor IIIC subunit 6)	-1.01
44	GTF3C6 (general transcription factor IIIC subunit 6)	-1
45	NTN5 (netrin 5)	1.1
46	NTN5 (netrin 5)	1.58
47	NTN5 (netrin 5)	0.74
48	NTN5 (netrin 5)	-0.34

16 of these entries in another layout:
ZIC5 (Zic family zinc finger 5) — TNF reporter robust z-score: 0.47
ZIC5 (Zic family zinc finger 5) — TNF reporter robust z-score: -0.94
ZIC5 (Zic family zinc finger 5) — TNF reporter robust z-score: -1.38
ZIC5 (Zic family zinc finger 5) — TNF reporter robust z-score: -0.38
OR9Q2 (olfactory receptor family 9 subfamily Q member 2) — TNF reporter robust z-score: 0.12
OR9Q2 (olfactory receptor family 9 subfamily Q member 2) — TNF reporter robust z-score: 0.06
OR9Q2 (olfactory receptor family 9 subfamily Q member 2) — TNF reporter robust z-score: -0.73
OR9Q2 (olfactory receptor family 9 subfamily Q member 2) — TNF reporter robust z-score: 0.26
RNF145 (ring finger protein 145) — TNF reporter robust z-score: 1.59
RNF145 (ring finger protein 145) — TNF reporter robust z-score: 1.1
RNF145 (ring finger protein 145) — TNF reporter robust z-score: -0.3
RNF145 (ring finger protein 145) — TNF reporter robust z-score: 1.35
OR5A2 (olfactory receptor family 5 subfamily A member 2) — TNF reporter robust z-score: -0.05
OR5A2 (olfactory receptor family 5 subfamily A member 2) — TNF reporter robust z-score: -0.56
OR5A2 (olfactory receptor family 5 subfamily A member 2) — TNF reporter robust z-score: -0.64
OR5A2 (olfactory receptor family 5 subfamily A member 2) — TNF reporter robust z-score: -1.39

The listing continues:
no.	gene	TNF reporter robust z-score
49	GNAT1 (G protein subunit alpha transducin 1)	-0.07
50	GNAT1 (G protein subunit alpha transducin 1)	0.11
51	GNAT1 (G protein subunit alpha transducin 1)	-0.25
52	GNAT1 (G protein subunit alpha transducin 1)	0.78
53	TUSC2 (tumor suppressor 2, mitochondrial calcium regulator)	0.17
54	TUSC2 (tumor suppressor 2, mitochondrial calcium regulator)	0.52
55	TUSC2 (tumor suppressor 2, mitochondrial calcium regulator)	-0.01
56	TUSC2 (tumor suppressor 2, mitochondrial calcium regulator)	0.11
57	SMIM8 (small integral membrane protein 8)	0.77
58	SMIM8 (small integral membrane protein 8)	1.5
59	SMIM8 (small integral membrane protein 8)	-0.95
60	SMIM8 (small integral membrane protein 8)	0.06
61	RNF169 (ring finger protein 169)	0.13
62	RNF169 (ring finger protein 169)	-0.89
63	RNF169 (ring finger protein 169)	0.07
64	RNF169 (ring finger protein 169)	-0.97
65	MT1HL1 (metallothionein 1H like 1)	-1.13
66	MT1HL1 (metallothionein 1H like 1)	-0.64
67	MT1HL1 (metallothionein 1H like 1)	-0.7
68	MT1HL1 (metallothionein 1H like 1)	-1.37
69	LY6G5C (lymphocyte antigen 6 family member G5C)	2.27
70	LY6G5C (lymphocyte antigen 6 family member G5C)	2.59
71	LY6G5C (lymphocyte antigen 6 family member G5C)	1.37
72	LY6G5C (lymphocyte antigen 6 family member G5C)	1.95
73	MYCT1 (MYC target 1)	-1.44
74	MYCT1 (MYC target 1)	-1.29
75	MYCT1 (MYC target 1)	-1.22
76	MYCT1 (MYC target 1)	-1.3
77	XPO4 (exportin 4)	1.07
78	XPO4 (exportin 4)	2.09
79	XPO4 (exportin 4)	0.03
80	XPO4 (exportin 4)	-0.05
81	RPS14 (ribosomal protein S14)	0.02
82	RPS14 (ribosomal protein S14)	0.56
83	RPS14 (ribosomal protein S14)	-0.55
84	RPS14 (ribosomal protein S14)	1.09
85	C2CD4B (C2 calcium dependent domain containing 4B)	-0.77
86	C2CD4B (C2 calcium dependent domain containing 4B)	-0.5
87	C2CD4B (C2 calcium dependent domain containing 4B)	-0.95
88	C2CD4B (C2 calcium dependent domain containing 4B)	0.17
89	NT5M (5',3'-nucleotidase, mitochondrial)	-1.35
90	NT5M (5',3'-nucleotidase, mitochondrial)	-0.96
91	NT5M (5',3'-nucleotidase, mitochondrial)	-1.74 (active)
92	NT5M (5',3'-nucleotidase, mitochondrial)	-1.63 (active)
93	NR1H2 (nuclear receptor subfamily 1 group H member 2)	1.07
94	NR1H2 (nuclear receptor subfamily 1 group H member 2)	1.47
95	NR1H2 (nuclear receptor subfamily 1 group H member 2)	0.58
96	NR1H2 (nuclear receptor subfamily 1 group H member 2)	2.47
97	CAAP1 (caspase activity and apoptosis inhibitor 1)	-0.41
98	CAAP1 (caspase activity and apoptosis inhibitor 1)	-0.49
99	CAAP1 (caspase activity and apoptosis inhibitor 1)	-0.65
100	CAAP1 (caspase activity and apoptosis inhibitor 1)	-0.05
101	EFCC1 (EF-hand and coiled-coil domain containing 1)	0
102	EFCC1 (EF-hand and coiled-coil domain containing 1)	1.42
103	EFCC1 (EF-hand and coiled-coil domain containing 1)	-0.2
104	EFCC1 (EF-hand and coiled-coil domain containing 1)	1.31
105	EIF3D (eukaryotic translation initiation factor 3 subunit D)	0.29
106	EIF3D (eukaryotic translation initiation factor 3 subunit D)	0.88
107	EIF3D (eukaryotic translation initiation factor 3 subunit D)	-0.04
108	EIF3D (eukaryotic translation initiation factor 3 subunit D)	0.45
109	SHISA3 (shisa family member 3)	0.21
110	SHISA3 (shisa family member 3)	0.63
111	SHISA3 (shisa family member 3)	0
112	SHISA3 (shisa family member 3)	-0.4
